{"source": "PubChem BioAssay AID652243 – Drosophila RNAi Screening Center – 2013", "screen": "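Fly genes required for human androgen receptor driven transcription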 (primary screen)", "cell system": "Drosophila S2R+ cells", "knock-down reagent": "long dsRNA against Drosophila genes", "time to read-out": "72 h (48 h, then 24 h hormone)", "conditions": "synthetic androgen R1881 at 10 nM for 24 h", "detection": "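Firefly light from an androgen-responsive reporter and Renilla control light per well, raw and unnormalised, for each of two replicates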", "direction": "firefly reporter light: higher = more light from androgen-responsive reporter; Renilla control light: higher = more constitutive control signal (cell number, transfection)", "active means": "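Hit when the log firefly-to-Renilla ratio dropped or increased by a fixed fold versus the mean of GFP or LacZ controls across duplicate plates; lowering cut given as 1.5 and as 3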", "meaning of the calls": "active = hit: reporter lowered or raised; inactive = no hit", "note": "The screen tested about 24,000 reagents; below is a random part of those that have a named target and a result. In the full data, 246 (1%) got an active call. 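Plates not normalised; calls are printed but the firefly/Renilla ratio behind them is not deposited; fold cut for lowering reported inconsistently.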 Raw values are not corrected between plates. Reagent sequences are not shown. The record does not give: the amount of reagent."}
The opening 2 entries as a preview:
{"target": "CG30122", "PubChem SID": "SID104186727", "firefly reporter light, replicate 1": 84549, "firefly reporter light, replicate 2": 1.33e5, "Renilla control light, replicate 1": 1.66e6, "Renilla control light, replicate 2": 1.50e6, "Call": "inactive"}
{"target": "Grip75", "PubChem SID": "SID104183129", "firefly reporter light, replicate 1": 1.83e5, "firefly reporter light, replicate 2": 1.29e5, "Renilla control light, replicate 1": 1.17e6, "Renilla control light, replicate 2": 1.02e6, "Call": "inactive"}

The list itself, from the first entry:
{"target": "CG30122", "PubChem SID": "SID104186727", "firefly reporter light, replicate 1": 84549, "firefly reporter light, replicate 2": 1.33e5, "Renilla control light, replicate 1": 1.66e6, "Renilla control light, replicate 2": 1.50e6, "Call": "inactive"}
{"target": "Grip75", "PubChem SID": "SID104183129", "firefly reporter light, replicate 1": 1.83e5, "firefly reporter light, replicate 2": 1.29e5, "Renilla control light, replicate 1": 1.17e6, "Renilla control light, replicate 2": 1.02e6, "Call": "inactive"}
{"target": "Clamp (Chromatin-linked adaptor for MSL proteins)", "PubChem SID": "SID104183510", "firefly reporter light, replicate 1": 1.16e6, "firefly reporter light, replicate 2": 1.13e6, "Renilla control light, replicate 1": 2.03e6, "Renilla control light, replicate 2": 2.04e6, "Call": "inactive"}
{"target": "Clamp (Chromatin-linked adaptor for MSL proteins)", "PubChem SID": "SID104201363", "firefly reporter light, replicate 1": 1.03e6, "firefly reporter light, replicate 2": 1.23e6, "Renilla control light, replicate 1": 1.52e6, "Renilla control light, replicate 2": 1.20e6, "Call": "inactive"}
{"target": "Clamp (Chromatin-linked adaptor for MSL proteins)", "PubChem SID": "SID104208479", "firefly reporter light, replicate 1": 5.79e5, "firefly reporter light, replicate 2": 5.66e5, "Renilla control light, replicate 1": 9.97e5, "Renilla control light, replicate 2": 7.99e5, "Call": "inactive"}
{"target": "CG13185", "PubChem SID": "SID104186102", "firefly reporter light, replicate 1": 7.24e5, "firefly reporter light, replicate 2": 1.37e6, "Renilla control light, replicate 1": 1.02e6, "Renilla control light, replicate 2": 2.05e6, "Call": "inactive"}
{"target": "CG9877", "PubChem SID": "SID104184379", "firefly reporter light, replicate 1": 4.39e5, "firefly reporter light, replicate 2": 4.97e5, "Renilla control light, replicate 1": 2.71e6, "Renilla control light, replicate 2": 2.05e6, "Call": "inactive"}
{"target": "CG9877", "PubChem SID": "SID104203932", "firefly reporter light, replicate 1": 1.17e6, "firefly reporter light, replicate 2": 1.19e6, "Renilla control light, replicate 1": 1.23e6, "Renilla control light, replicate 2": 1.57e6, "Call": "inactive"}
{"target": "Upf1 (Upf1 RNA helicase)", "PubChem SID": "SID104199459", "firefly reporter light, replicate 1": 97456, "firefly reporter light, replicate 2": 97121, "Renilla control light, replicate 1": 5.97e5, "Renilla control light, replicate 2": 6.43e5, "Call": "inactive"}
{"target": "RacGAP84C (Rac GTPase activating protein at 84C)", "PubChem SID": "SID104192422", "firefly reporter light, replicate 1": 2.02e5, "firefly reporter light, replicate 2": 2.14e5, "Renilla control light, replicate 1": 4.16e6, "Renilla control light, replicate 2": 3.56e6, "Call": "inactive"}
{"target": "CG10920", "PubChem SID": "SID104197557", "firefly reporter light, replicate 1": 1.54e5, "firefly reporter light, replicate 2": 2.21e5, "Renilla control light, replicate 1": 1.60e6, "Renilla control light, replicate 2": 1.77e6, "Call": "inactive"}
{"target": "RhoGAP1A (Rho GTPase activating protein at 1A)", "PubChem SID": "SID104200441", "firefly reporter light, replicate 1": 2.73e5, "firefly reporter light, replicate 2": 1.21e5, "Renilla control light, replicate 1": 8.05e5, "Renilla control light, replicate 2": 5.82e5, "Call": "inactive"}
{"target": "RhoGAP1A (Rho GTPase activating protein at 1A)", "PubChem SID": "SID104200443", "firefly reporter light, replicate 1": 1.58e5, "firefly reporter light, replicate 2": 1.76e5, "Renilla control light, replicate 1": 5.89e5, "Renilla control light, replicate 2": 4.79e5, "Call": "inactive"}
{"target": "CG8292", "PubChem SID": "SID104182874", "firefly reporter light, replicate 1": 2.21e5, "firefly reporter light, replicate 2": 2.13e5, "Renilla control light, replicate 1": 1.77e6, "Renilla control light, replicate 2": 1.22e6, "Call": "inactive"}
{"target": "Mdh1 (Malate dehydrogenase 1)", "PubChem SID": "SID104182638", "firefly reporter light, replicate 1": 3.26e5, "firefly reporter light, replicate 2": 2.49e5, "Renilla control light, replicate 1": 2.42e6, "Renilla control light, replicate 2": 2.10e6, "Call": "inactive"}
{"target": "E(spl)m4-BFM (Enhancer of split m4, Bearded family member)", "PubChem SID": "SID104196784", "firefly reporter light, replicate 1": 2.39e5, "firefly reporter light, replicate 2": 1.68e5, "Renilla control light, replicate 1": 2.36e6, "Renilla control light, replicate 2": 2.23e6, "Call": "inactive"}
{"target": "E(spl)m4-BFM (Enhancer of split m4, Bearded family member)", "PubChem SID": "SID104206186", "firefly reporter light, replicate 1": 1.93e5, "firefly reporter light, replicate 2": 2.51e5, "Renilla control light, replicate 1": 5.46e5, "Renilla control light, replicate 2": 7.53e5, "Call": "inactive"}
{"target": "CG42850 (retired record)", "PubChem SID": "SID104180664", "firefly reporter light, replicate 1": 5.75e5, "firefly reporter light, replicate 2": 4.33e5, "Renilla control light, replicate 1": 3.14e6, "Renilla control light, replicate 2": 3.56e6, "Call": "inactive"}
{"target": "PlexB (Plexin B)", "PubChem SID": "SID104196969", "firefly reporter light, replicate 1": 1.61e5, "firefly reporter light, replicate 2": 1.94e5, "Renilla control light, replicate 1": 1.54e6, "Renilla control light, replicate 2": 2.24e6, "Call": "inactive"}
{"target": "Jhbp6 (Juvenile hormone binding protein 6)", "PubChem SID": "SID104191506", "firefly reporter light, replicate 1": 1.41e5, "firefly reporter light, replicate 2": 1.23e5, "Renilla control light, replicate 1": 2.23e6, "Renilla control light, replicate 2": 2.20e6, "Call": "inactive"}
{"target": "Jhbp6 (Juvenile hormone binding protein 6)", "PubChem SID": "SID104205436", "firefly reporter light, replicate 1": 3.30e5, "firefly reporter light, replicate 2": 4.03e5, "Renilla control light, replicate 1": 6.92e5, "Renilla control light, replicate 2": 8.19e5, "Call": "inactive"}
